Reference: PubChem BioAssay AID2685 (National Center for Advancing Translational Sciences (NCATS), 2010)
Some of the results follow. The main result of the screen is listed elsewhere. These columns were measured beside it and carry no call. The list favours compounds with an active or inconclusive main result. The note in brackets gives the kind of curve behind each potency; many fits are weak.

Assay: qHTS Assay for Lipid Storage Modulators in Drosophila S3 Cells;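 for cell number change: cells counted by Cell Tracker Red CMTPX staining in the red channel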
Details: BODIPY lipid droplet fluorescence, 18-24 h; for cell number change: measured here: cell count max response, cells fed with added oleic acid
Procedure, shortened: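 Drosophila S3 cells loaded with oleic acid (400 uM, as added) and compounds at several concentrations; lipid droplets imaged by 488-nm laser-scanning cytometry, 500–530 nm intensity and object ratio to cell channel. Percent activity normalized to 20 uM Triacsin C.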

[1] = measured here: lipid fluorescence (Fed channel) AC50, cells fed with added oleic acid
[2] = measured here: cell number channel AC50, cells fed with added oleic acid

SMILES | cell number change [%] | AC50 [1] | AC50 [2]
Cn1c(CC(=O)Nc2ccccc2Cl)nnc1SCC(=O)Nc1nncs1 | 6.35 | 29.1 µM [rising, single point] | 
COc1ccccc1Oc1coc2c(CN3CCOCC3)c(O)ccc2c1=O | -4.77 | 0.651 µM [falling, single point] | 0.00461 µM [falling, full curve, poor fit]
CC(=O)Nc1ccc(S(=O)(=O)N[C@@H](C)C(=O)Nc2ccc(N3CCOCC3)cc2)cc1 | 23.2 |  | 
O=C(Nc1cccc([N+](=O)[O-])c1)c1cc(S(=O)(=O)N2CCOCC2)cs1 | -26.1 |  | 
Cc1nc2c(cnn2-c2ccccc2Cl)c(=O)n1-c1ccc(N2CCC(C)CC2)cc1 | -41.1 | 2.91 µM [rising, partial curve] | 1.84 µM [rising, partial curve]
O=C(NCc1ccccc1Cl)C1CCN(C(=O)c2ccco2)CC1 | 4.5 | 0.58 µM [rising, single point] | 
CCCn1nnnc1NCc1ccccc1Cl | 6.3 | 29.1 µM [rising, single point] | 
COc1ccccc1NC(=O)CNC(=O)Cn1cnc2sc(C)c(C)c2c1=O | 2.85 | 23.1 µM [rising, partial curve, poor fit] | 
Cc1c(C(=O)Cc2ccccc2)n(C)c2ccccc12 | 56.7 |  | 18.4 µM [rising, single point]
O=C(c1cnn2c(C(F)(F)F)cc(-c3ccc4c(c3)OCO4)nc12)N1CCCCC1 | 1.02 |  | 
COc1ccc(S(=O)(=O)N2CCOCC2)cc1Br | 11.1 |  | 
NS(=O)(=O)c1cc(C(=O)NC2CCSc3ccccc32)ccc1Cl (stereo not given) | 12.9 | 0.00517 µM [falling, full curve, poor fit] | 
NNC(=O)COc1ccc(C2SCCS2)cc1 | -31.8 |  | 32.6 µM [falling, single point]
COc1ccc(NC(=O)CSc2nnc3n2CCCCC3)cc1S(=O)(=O)N1CCOCC1 | -33.9 | 0.00461 µM [falling, full curve, poor fit] | 0.206 µM [falling, full curve]
CN(C)/C=N/NC(=O)C1Cc2c(ccc3ccccc23)O1 (stereo not given) | 19.8 | 11.6 µM [rising, partial curve] | 
CN(C(=O)c1ccccc1)C1(C)CCS(=O)(=O)C1 (stereo not given) | -53.6 | 5.8 µM [falling, full curve] | 9.2 µM [falling, partial curve]
COc1ccc2sc(-c3ccc(N(C)C)cc3)c(-c3cnc(OC)nc3)c2c1 | -7.31 | 16.4 µM [rising, single point] | 
Cn1c(O)c(N=Nc2ccccc2)c2ccccc21 | 0.556 | 0.00411 µM [rising, full curve, poor fit] | 
CC(C)CN(C(=O)CN1CCCCCC1)c1c(N)n(CC(C)C)c(=O)[nH]c1=O | -26.8 | 0.82 µM [falling, partial curve, poor fit] | 
Cc1c(C(=O)O)nnn1-c1nonc1N | 9.85 |  | 
O=C(OCC#CCSc1nnc(-c2cccc3ccccc23)o1)c1cccs1 | -0.83 | 0.164 µM [rising, full curve, poor fit] | 
Cc1cccc(C)c1NC(=O)COc1ccc2c(C)c(Cc3ccccc3)c(=O)oc2c1C | -24.2 | 29.1 µM [falling, single point] | 

SMILES | cell number change [%] | AC50 [1] | AC50 [2]
COc1ccc(NC(=O)COc2ccc3c(c2)OCO3)cc1 | -26.3 |  | 
O=C(O)c1nn(-c2ccccc2-c2n[nH]c(=O)[nH]c2=O)c(=O)[nH]c1=O | 3.3 | 6.51 µM [falling, single point] | 
CC1(C)CC(C(CC(=O)N2CCCC2)Cc2ccccc2)CCO1 (stereo not given) | 6.4 | 29.1 µM [rising, single point] | 
CCCc1nn(C)c(C(=O)Nc2cccc(C)c2)c1Cl | -24.8 | 0.651 µM [rising, full curve, poor fit] | 
C#CCSc1nc2[nH]ncc2c(=O)[nH]1 | -0.47 |  | 
Cc1ccc(S(=O)(=O)N2CCCC2C(=O)O)s1 (stereo not given) | -8.27 | 29.1 µM [falling, single point] | 7.31 µM [falling, single point]
COC(=O)c1onc(-c2c(Cl)cccc2Cl)c1C(=O)OC | 20.3 | 0.0058 µM [rising, full curve, poor fit] | 
c1ccc(OCCN2CCN(C(c3ccccc3)c3ccccc3)CC2)cc1 | -25.9 |  | 
O=C(CN1C(=O)NC2(CCCCC2)C1=O)N(Cc1ccco1)Cc1cccs1 | 1.2 |  | 
COc1cccc(NC(=O)CN(C)C(=O)c2cccnc2Nc2cccc(C(F)(F)F)c2)c1 | -26.7 |  | 
O=C(CN1CCCCC1)Nc1ccc(NC(=O)c2ccccc2Cl)cc1Cl | 0.559 | 5.8 µM [rising, partial curve] | 
CN(C)c1cccc(C(=O)NC2CCCCCC2)c1 | -13.8 | 4.11 µM [rising, single point] | 
C/C(=N\NC(=O)c1nnn(-c2nonc2N)c1CN(C)c1ccccc1)c1cccc(O)c1 | -25.7 | 32.6 µM [falling, single point] | 
O=C(NCc1cccs1)c1csc2ccccc12 |  | 6.51 µM [falling, single point] | 0.731 µM [falling, full curve]
Cn1c(=O)c2c(ncn2CC2OCCO2)n(C)c1=O | 24.3 | 6.51 µM [rising, single point] | 6.51 µM [rising, single point]
Cc1cc(C)c2c(N)c(C(=O)c3ccccc3)oc2n1 | 1.56 |  | 
Fc1ccc(C2CC(c3ccco3)=NN2c2ccccc2)cc1 (stereo not given) | -65.1 | 0.291 µM [falling, full curve] | 0.0651 µM [falling, full curve, poor fit]
Cc1ccc(NC(=O)CN(C)C(=O)CSc2ncc(C(F)(F)F)cc2Cl)cc1 | 20.4 | 20.6 µM [rising, single point] | 
Cc1nc(-c2ccc(S(=O)(=O)NCC3CCN(C(=O)OC(C)(C)C)CC3)s2)cs1 | -3.07 | 4.61 µM [rising, single point] | 
CCc1ccccc1-n1c(SCC(=O)c2c(N)n(C3CC3)c(=O)[nH]c2=O)nnc1N1CCOCC1 | 18.9 | 6.51 µM [falling, single point] | 
CCc1ccc(/C=N/NC(=O)Cc2ccc(OC)c(OC)c2)s1 | 7.23 |  | 
CC12CCC(c3c1nc1ccccc1[n+]3[O-])C2(C)C (stereo not given) | -11.6 | 2.06 µM [rising, partial curve] | 

Structures above that contain a COOH group (3):
SMILES | cell number change [%] | AC50 [1] | AC50 [2]
Cc1c(C(=O)O)nnn1-c1nonc1N | 9.85 |  | 
O=C(O)c1nn(-c2ccccc2-c2n[nH]c(=O)[nH]c2=O)c(=O)[nH]c1=O | 3.3 | 6.51 µM [falling, single point] | 
Cc1ccc(S(=O)(=O)N2CCCC2C(=O)O)s1 (stereo not given) | -8.27 | 29.1 µM [falling, single point] | 7.31 µM [falling, single point]

Additional results:

SMILES | cell number change [%] | AC50 [1] | AC50 [2]
Cc1cc(C)c(S(=O)(=O)NCCc2cc3ccc(C)c(C)c3[nH]c2=O)c(C)c1 | -1.35 | 29.1 µM [falling, single point] | 
COC(=O)c1ccc(NC(=O)Cn2nc(-c3ccncc3)nc2SCC(=O)Nc2nccs2)cc1 |  | 29.1 µM [rising, single point] | 
O=C(CCn1c(=O)oc2ccccc21)NCCN1CCc2ccccc2C1 | 18.9 |  | 
Cc1cccc(C(=O)NC(=S)N2CCN(C(=S)NC(=O)c3cccc(C)c3)CC2)c1 | 8.31 | 3.66 µM [rising, full curve] | 
Cc1ccc(COC(=O)c2cccc(S(=O)(=O)N3CCCCC3)c2)cc1 | 75 |  | 6.51 µM [falling, single point]
CCOC(=O)c1nn(-c2ccc(F)cc2)c(=O)cc1OCC(=O)Nc1ccc(F)c(F)c1 | 26.1 |  | 0.0058 µM [rising, full curve, poor fit]
CC(NC(=O)c1ccc(C#N)cc1)C1CC2CCC1C2 (stereo not given) | -3.48 |  | 
O=C(Oc1cccc(C(=S)N2CCOCC2)c1)c1ccccc1 | 6.58 |  | 
CCOc1ccccc1NC(=O)c1cnccn1 | 19.6 | 29.1 µM [rising, single point] | 
CCOc1ccccc1N=Cc1c(O)n(C)c(=O)n(C)c1=O | -12.5 | 0.00461 µM [falling, full curve, poor fit] | 
CCOC(=O)c1ccccc1NC(=O)c1ccccc1SC | 184 | 7.31 µM [rising, partial curve] | 3.66 µM [rising, full curve]
CC(C)Oc1cccc(-c2nnc(SCC(=O)Nc3ccc4c(c3)OCCO4)n2N)c1 | -18.6 | 18.4 µM [falling, single point] | 
COc1ccccc1-n1cnnc1SCC(=O)Nc1cccc(S(N)(=O)=O)c1 | 3.78 | 29.1 µM [rising, single point] | 
C=CCn1c(-c2cccc(S(=O)(=O)N(CC)CC)c2)n[nH]c1=S |  | 0.731 µM [rising, single point] | 
CCCCN(C(=O)c1ccc(-c2ccc([N+](=O)[O-])cc2)o1)c1c(N)n(CCCC)c(=O)[nH]c1=O | -32.7 |  | 18.4 µM [falling, single point]
CCOc1ccc2nc(N(CCCN(C)C)C(=O)c3ccc(S(=O)(=O)N4CCc5ccccc5C4)cc3)sc2c1 | 25.3 | 16.4 µM [rising, single point] | 
O=S1(=O)CC2N=C(N(Cc3c(F)cccc3Cl)c3ccccc3F)SC2C1 (stereo not given) | 4.64 |  | 
COCC(C)NC(=O)c1ccc2c(c1)S(=O)(=O)c1ccccc1C2=O (stereo not given) | -12.1 | 20.6 µM [falling, single point] | 
Cc1cc(C)cc(C(=O)Nc2ccncc2)c1 | 1.66 | 29.1 µM [rising, single point] | 
Cn1cc(CC(=O)N2CCN(c3ccccc3F)CC2)c2ccccc21 | 8.96 | 2.06 µM [rising, partial curve] | 
Cc1ccc(N/C=C/C(=O)c2cccs2)cc1C | 29.5 | 4.11 µM [rising, partial curve] | 
